Measured data: PubChem BioAssay AID652272 (Drosophila RNAi Screening Center, 2013)

Assay: 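Genes whose knock-down decreases or increases Hedgehog reporter output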 (primary screen)
Cell system: Drosophila clone 8 (Cl8) cells
Reagent: long dsRNA against Drosophila genes
Read-out: 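Firefly light from a Hedgehog-responsive ptc promoter reporter and Renilla reference light, both read on a plate reader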
Direction: firefly Hh reporter signal: higher = more ptc reporter light; Renilla reference signal: higher = more Renilla control light
Call rule: 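Hit when the z-score averaged over two replicates is under -2 or over +3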
Meaning of the calls: active = hit: reporter lowered or raised; inactive = not a hit
The deposit covers about 21,000 reagents; this is an unselected part of those with a known target gene and a result. Of all reagents, 503 (2.4%) got an active call. 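Raw plate light values, not normalised; calls rest on replicate z-scores that were not deposited; hits include reporter decreases as well as increases.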 Reagents against one gene are numbered here. A plus sign joins genes that one reagent is predicted to hit. Not given: the amount of reagent, the time to read-out.

RpL24
- firefly Hh reporter signal, replicate 1: 33162
- firefly Hh reporter signal, replicate 2: 19957
- Renilla reference signal, replicate 1: 1705
- Renilla reference signal, replicate 2: 3121
- outcome: active

CG3386
- firefly Hh reporter signal, replicate 1: 93684
- firefly Hh reporter signal, replicate 2: 42187
- Renilla reference signal, replicate 1: 3255
- Renilla reference signal, replicate 2: 2923
- outcome: inactive

Boot
- firefly Hh reporter signal, replicate 1: 83520
- firefly Hh reporter signal, replicate 2: 38093
- Renilla reference signal, replicate 1: 2530
- Renilla reference signal, replicate 2: 3926
- outcome: inactive

Adss
- firefly Hh reporter signal, replicate 1: 1.51e5
- firefly Hh reporter signal, replicate 2: 71914
- Renilla reference signal, replicate 1: 5620
- Renilla reference signal, replicate 2: 2706
- outcome: inactive

nyo #1
- firefly Hh reporter signal, replicate 1: 1.01e5
- firefly Hh reporter signal, replicate 2: 3.33e5
- Renilla reference signal, replicate 1: 1677
- Renilla reference signal, replicate 2: 10093
- outcome: inactive

nyo #2
- firefly Hh reporter signal, replicate 1: 72794
- firefly Hh reporter signal, replicate 2: 1.50e5
- Renilla reference signal, replicate 1: 1925
- Renilla reference signal, replicate 2: 5354
- outcome: inactive

CG3430
- firefly Hh reporter signal, replicate 1: 58882
- firefly Hh reporter signal, replicate 2: 58538
- Renilla reference signal, replicate 1: 3180
- Renilla reference signal, replicate 2: 2448
- outcome: inactive

CR11386 + CR33222
- firefly Hh reporter signal, replicate 1: 54243
- firefly Hh reporter signal, replicate 2: 2.55e5
- Renilla reference signal, replicate 1: 2290
- Renilla reference signal, replicate 2: 9744
- outcome: inactive

CG9667
- firefly Hh reporter signal, replicate 1: 66157
- firefly Hh reporter signal, replicate 2: 64084
- Renilla reference signal, replicate 1: 4096
- Renilla reference signal, replicate 2: 2870
- outcome: active

The list goes on; the last 4 above are carried over.
nyo #2
- firefly Hh reporter signal, replicate 1: 72794
- firefly Hh reporter signal, replicate 2: 1.50e5
- Renilla reference signal, replicate 1: 1925
- Renilla reference signal, replicate 2: 5354
- outcome: inactive

CG3430
- firefly Hh reporter signal, replicate 1: 58882
- firefly Hh reporter signal, replicate 2: 58538
- Renilla reference signal, replicate 1: 3180
- Renilla reference signal, replicate 2: 2448
- outcome: inactive

CR11386 + CR33222
- firefly Hh reporter signal, replicate 1: 54243
- firefly Hh reporter signal, replicate 2: 2.55e5
- Renilla reference signal, replicate 1: 2290
- Renilla reference signal, replicate 2: 9744
- outcome: inactive

CG9667
- firefly Hh reporter signal, replicate 1: 66157
- firefly Hh reporter signal, replicate 2: 64084
- Renilla reference signal, replicate 1: 4096
- Renilla reference signal, replicate 2: 2870
- outcome: active

CG33474
- firefly Hh reporter signal, replicate 1: 1.21e5
- firefly Hh reporter signal, replicate 2: 3.62e5
- Renilla reference signal, replicate 1: 3239
- Renilla reference signal, replicate 2: 13145
- outcome: inactive

modSP #1
- firefly Hh reporter signal, replicate 1: 1.75e5
- firefly Hh reporter signal, replicate 2: 1.48e5
- Renilla reference signal, replicate 1: 5741
- Renilla reference signal, replicate 2: 4112
- outcome: inactive

modSP #2
- firefly Hh reporter signal, replicate 1: 59864
- firefly Hh reporter signal, replicate 2: 88580
- Renilla reference signal, replicate 1: 2178
- Renilla reference signal, replicate 2: 2483
- outcome: inactive

CG11370
- firefly Hh reporter signal, replicate 1: 65371
- firefly Hh reporter signal, replicate 2: 50997
- Renilla reference signal, replicate 1: 2880
- Renilla reference signal, replicate 2: 1940
- outcome: inactive

CG42750 #1
- firefly Hh reporter signal, replicate 1: 2.23e5
- firefly Hh reporter signal, replicate 2: 1.55e5
- firefly Hh reporter signal, replicate 3: 51029
- Renilla reference signal, replicate 1: 18898
- Renilla reference signal, replicate 2: 3728
- outcome: active

CG42750 #2
- firefly Hh reporter signal, replicate 1: 1.55e5
- firefly Hh reporter signal, replicate 2: 60217
- Renilla reference signal, replicate 1: 4173
- Renilla reference signal, replicate 2: 3186
- outcome: inactive

CG42750 #3
- firefly Hh reporter signal, replicate 1: 96210
- firefly Hh reporter signal, replicate 2: 51682
- Renilla reference signal, replicate 1: 2471
- Renilla reference signal, replicate 2: 4626
- outcome: inactive

DNAlig4
- firefly Hh reporter signal, replicate 1: 90723
- firefly Hh reporter signal, replicate 2: 2.49e5
- Renilla reference signal, replicate 1: 3909
- Renilla reference signal, replicate 2: 10843
- outcome: inactive

Ubc84D
- firefly Hh reporter signal, replicate 1: 56844
- firefly Hh reporter signal, replicate 2: 70985
- Renilla reference signal, replicate 1: 1649
- Renilla reference signal, replicate 2: 2443
- outcome: inactive

Cpr23B
- firefly Hh reporter signal, replicate 1: 1.60e5
- firefly Hh reporter signal, replicate 2: 1.03e5
- Renilla reference signal, replicate 1: 3933
- Renilla reference signal, replicate 2: 2128
- outcome: inactive

Sarm #1
- firefly Hh reporter signal, replicate 1: 1.15e5
- firefly Hh reporter signal, replicate 2: 2.61e5
- Renilla reference signal, replicate 1: 2874
- Renilla reference signal, replicate 2: 9705
- outcome: inactive

Sarm #2
- firefly Hh reporter signal, replicate 1: 1.40e5
- firefly Hh reporter signal, replicate 2: 2.19e5
- Renilla reference signal, replicate 1: 3913
- Renilla reference signal, replicate 2: 9307
- outcome: inactive

Sarm #3
- firefly Hh reporter signal, replicate 1: 59648
- firefly Hh reporter signal, replicate 2: 70592
- Renilla reference signal, replicate 1: 5824
- Renilla reference signal, replicate 2: 5456
- outcome: inactive

Sarm #4
- firefly Hh reporter signal, replicate 1: 37904
- firefly Hh reporter signal, replicate 2: 61739
- Renilla reference signal, replicate 1: 5041
- Renilla reference signal, replicate 2: 4524
- outcome: inactive

Sarm #5
- firefly Hh reporter signal, replicate 1: 60727
- firefly Hh reporter signal, replicate 2: 63478
- Renilla reference signal, replicate 1: 5675
- Renilla reference signal, replicate 2: 4747
- outcome: inactive

Sarm #6
- firefly Hh reporter signal, replicate 1: 1.26e5
- firefly Hh reporter signal, replicate 2: 86381
- Renilla reference signal, replicate 1: 5232
- Renilla reference signal, replicate 2: 3632
- outcome: inactive

Mapmodulin
- firefly Hh reporter signal, replicate 1: 1.20e5
- firefly Hh reporter signal, replicate 2: 81607
- Renilla reference signal, replicate 1: 5622
- Renilla reference signal, replicate 2: 3497
- outcome: inactive

scaf6 #1
- firefly Hh reporter signal, replicate 1: 1.36e5
- firefly Hh reporter signal, replicate 2: 1.18e5
- Renilla reference signal, replicate 1: 5637
- Renilla reference signal, replicate 2: 4528
- outcome: inactive

scaf6 #2
- firefly Hh reporter signal, replicate 1: 1.27e5
- Renilla reference signal, replicate 1: 1539
- Renilla reference signal, replicate 2: 3314
- outcome: inactive

scaf6 #3
- firefly Hh reporter signal, replicate 1: 66157
- Renilla reference signal, replicate 1: 476
- Renilla reference signal, replicate 2: 1120
- outcome: inactive
